Test results from the supplement of paper PMC10849652.
The list shows a part of the results.

By UniProt entry, the sequences of proteins in these tests, tags left out. Where a name states a change or a piece, a line headed by the entry shows the natural chain unless it says otherwise.
UniProt Q9NRX1: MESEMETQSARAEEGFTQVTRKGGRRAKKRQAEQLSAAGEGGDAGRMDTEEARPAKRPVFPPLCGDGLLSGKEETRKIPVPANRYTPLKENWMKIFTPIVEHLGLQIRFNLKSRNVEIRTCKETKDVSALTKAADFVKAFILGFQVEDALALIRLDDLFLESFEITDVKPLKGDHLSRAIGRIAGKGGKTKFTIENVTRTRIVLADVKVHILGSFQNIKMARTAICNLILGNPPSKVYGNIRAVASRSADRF
UniProt Q9UHN1: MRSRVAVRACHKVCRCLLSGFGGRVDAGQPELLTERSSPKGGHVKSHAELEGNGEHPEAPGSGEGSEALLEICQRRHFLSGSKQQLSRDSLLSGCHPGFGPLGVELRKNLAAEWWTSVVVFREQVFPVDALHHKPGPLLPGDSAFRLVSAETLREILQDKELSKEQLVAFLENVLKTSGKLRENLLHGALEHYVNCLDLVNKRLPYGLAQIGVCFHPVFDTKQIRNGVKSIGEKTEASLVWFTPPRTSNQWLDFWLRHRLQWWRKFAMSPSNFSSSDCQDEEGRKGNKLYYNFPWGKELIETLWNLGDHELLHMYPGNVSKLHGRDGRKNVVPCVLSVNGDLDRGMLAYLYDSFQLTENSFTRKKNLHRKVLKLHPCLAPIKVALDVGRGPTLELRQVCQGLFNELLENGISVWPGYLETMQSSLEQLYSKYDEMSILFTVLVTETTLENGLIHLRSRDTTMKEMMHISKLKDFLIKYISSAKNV
UniProt P30405: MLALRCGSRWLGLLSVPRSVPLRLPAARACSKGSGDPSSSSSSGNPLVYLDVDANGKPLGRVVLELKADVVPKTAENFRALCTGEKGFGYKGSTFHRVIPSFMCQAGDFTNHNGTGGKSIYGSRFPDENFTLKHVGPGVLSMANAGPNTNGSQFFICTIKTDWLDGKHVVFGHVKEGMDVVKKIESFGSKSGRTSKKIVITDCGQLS
UniProt Q8WZA1: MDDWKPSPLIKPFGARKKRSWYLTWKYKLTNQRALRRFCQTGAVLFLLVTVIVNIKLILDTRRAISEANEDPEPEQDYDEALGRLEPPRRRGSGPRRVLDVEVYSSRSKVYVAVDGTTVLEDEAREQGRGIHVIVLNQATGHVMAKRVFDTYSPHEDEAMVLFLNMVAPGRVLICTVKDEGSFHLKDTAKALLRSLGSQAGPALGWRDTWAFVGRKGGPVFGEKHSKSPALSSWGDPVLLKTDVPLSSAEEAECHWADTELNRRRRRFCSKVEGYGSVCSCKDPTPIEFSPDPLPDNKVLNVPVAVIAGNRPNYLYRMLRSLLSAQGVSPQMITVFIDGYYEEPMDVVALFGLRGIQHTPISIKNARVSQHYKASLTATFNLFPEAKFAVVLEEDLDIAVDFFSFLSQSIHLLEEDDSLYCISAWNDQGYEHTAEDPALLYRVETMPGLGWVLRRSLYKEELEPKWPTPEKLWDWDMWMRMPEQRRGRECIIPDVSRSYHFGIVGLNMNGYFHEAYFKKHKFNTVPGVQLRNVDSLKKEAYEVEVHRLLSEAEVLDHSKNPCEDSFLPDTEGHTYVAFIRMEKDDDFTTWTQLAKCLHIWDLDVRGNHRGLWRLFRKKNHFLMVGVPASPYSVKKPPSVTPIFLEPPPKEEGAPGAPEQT
UniProt Q9H9Y6, whole entry, looked up: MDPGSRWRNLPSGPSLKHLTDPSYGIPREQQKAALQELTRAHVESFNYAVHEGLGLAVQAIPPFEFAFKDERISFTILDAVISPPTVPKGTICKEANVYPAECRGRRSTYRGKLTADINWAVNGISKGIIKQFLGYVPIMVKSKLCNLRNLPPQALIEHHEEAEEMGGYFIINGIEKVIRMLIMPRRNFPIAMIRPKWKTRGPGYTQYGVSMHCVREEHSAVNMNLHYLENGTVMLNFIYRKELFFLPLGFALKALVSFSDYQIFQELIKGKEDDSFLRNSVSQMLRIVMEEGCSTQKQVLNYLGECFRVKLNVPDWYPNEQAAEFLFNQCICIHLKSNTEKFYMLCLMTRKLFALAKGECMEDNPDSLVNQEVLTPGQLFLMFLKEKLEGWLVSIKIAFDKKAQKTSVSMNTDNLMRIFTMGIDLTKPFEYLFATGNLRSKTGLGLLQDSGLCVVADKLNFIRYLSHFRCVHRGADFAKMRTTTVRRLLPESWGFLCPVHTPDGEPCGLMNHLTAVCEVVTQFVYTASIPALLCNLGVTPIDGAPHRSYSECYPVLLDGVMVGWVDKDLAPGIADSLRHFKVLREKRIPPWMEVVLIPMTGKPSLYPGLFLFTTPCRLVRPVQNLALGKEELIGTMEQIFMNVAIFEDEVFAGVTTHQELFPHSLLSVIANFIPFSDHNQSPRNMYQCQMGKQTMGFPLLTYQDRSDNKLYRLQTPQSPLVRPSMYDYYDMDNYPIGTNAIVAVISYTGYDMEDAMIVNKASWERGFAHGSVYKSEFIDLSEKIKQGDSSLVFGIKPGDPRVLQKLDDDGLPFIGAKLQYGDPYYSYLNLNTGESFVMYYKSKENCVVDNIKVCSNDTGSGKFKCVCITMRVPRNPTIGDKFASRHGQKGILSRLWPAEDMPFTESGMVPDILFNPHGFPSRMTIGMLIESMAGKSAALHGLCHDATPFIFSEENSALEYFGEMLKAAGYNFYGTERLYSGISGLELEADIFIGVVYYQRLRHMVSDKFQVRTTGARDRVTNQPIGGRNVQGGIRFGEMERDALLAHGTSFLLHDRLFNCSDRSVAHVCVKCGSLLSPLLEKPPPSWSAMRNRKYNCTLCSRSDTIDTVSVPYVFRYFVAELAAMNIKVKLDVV
UniProt O75688: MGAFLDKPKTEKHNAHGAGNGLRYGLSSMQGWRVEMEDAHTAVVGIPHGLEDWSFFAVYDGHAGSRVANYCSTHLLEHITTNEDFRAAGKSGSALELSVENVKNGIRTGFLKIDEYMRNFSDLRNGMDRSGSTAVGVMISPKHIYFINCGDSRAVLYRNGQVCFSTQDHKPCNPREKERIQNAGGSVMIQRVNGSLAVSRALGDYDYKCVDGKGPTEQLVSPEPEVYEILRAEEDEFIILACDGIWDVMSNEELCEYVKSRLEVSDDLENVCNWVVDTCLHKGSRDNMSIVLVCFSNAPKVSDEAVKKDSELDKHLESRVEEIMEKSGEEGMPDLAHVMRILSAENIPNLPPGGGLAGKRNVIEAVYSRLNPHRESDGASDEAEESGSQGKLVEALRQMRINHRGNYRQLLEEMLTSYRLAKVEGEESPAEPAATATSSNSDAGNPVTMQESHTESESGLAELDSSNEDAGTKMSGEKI
UniProt Q9BY77: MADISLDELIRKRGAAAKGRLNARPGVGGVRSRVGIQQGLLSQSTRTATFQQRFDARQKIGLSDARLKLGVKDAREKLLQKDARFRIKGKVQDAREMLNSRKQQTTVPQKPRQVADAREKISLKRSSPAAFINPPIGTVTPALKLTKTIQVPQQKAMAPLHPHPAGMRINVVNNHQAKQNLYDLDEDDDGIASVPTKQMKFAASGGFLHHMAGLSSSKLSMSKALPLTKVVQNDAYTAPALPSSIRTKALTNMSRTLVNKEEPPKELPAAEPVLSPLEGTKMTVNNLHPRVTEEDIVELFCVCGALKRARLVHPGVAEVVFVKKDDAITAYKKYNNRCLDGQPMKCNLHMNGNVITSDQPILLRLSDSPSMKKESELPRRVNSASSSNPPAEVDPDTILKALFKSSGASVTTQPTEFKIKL
UniProt O15318: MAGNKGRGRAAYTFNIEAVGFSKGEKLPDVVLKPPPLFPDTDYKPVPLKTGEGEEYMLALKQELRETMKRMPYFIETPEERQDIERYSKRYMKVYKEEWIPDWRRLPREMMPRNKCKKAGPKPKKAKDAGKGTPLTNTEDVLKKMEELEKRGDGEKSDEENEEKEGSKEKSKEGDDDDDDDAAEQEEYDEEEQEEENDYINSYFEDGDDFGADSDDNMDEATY
UniProt Q9BUI4: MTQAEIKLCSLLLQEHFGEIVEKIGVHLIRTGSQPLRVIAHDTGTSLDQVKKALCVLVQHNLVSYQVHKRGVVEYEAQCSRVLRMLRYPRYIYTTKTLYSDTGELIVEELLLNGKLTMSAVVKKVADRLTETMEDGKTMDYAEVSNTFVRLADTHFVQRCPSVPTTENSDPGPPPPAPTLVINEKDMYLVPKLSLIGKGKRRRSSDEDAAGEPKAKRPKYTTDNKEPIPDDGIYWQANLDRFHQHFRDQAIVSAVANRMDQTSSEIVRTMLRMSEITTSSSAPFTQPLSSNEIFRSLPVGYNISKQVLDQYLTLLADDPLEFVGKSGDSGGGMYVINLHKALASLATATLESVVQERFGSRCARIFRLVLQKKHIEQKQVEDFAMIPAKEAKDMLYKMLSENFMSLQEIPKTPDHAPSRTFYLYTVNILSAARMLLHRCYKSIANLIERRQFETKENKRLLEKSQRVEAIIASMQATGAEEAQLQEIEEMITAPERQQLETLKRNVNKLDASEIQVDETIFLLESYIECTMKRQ
UniProt Q15181: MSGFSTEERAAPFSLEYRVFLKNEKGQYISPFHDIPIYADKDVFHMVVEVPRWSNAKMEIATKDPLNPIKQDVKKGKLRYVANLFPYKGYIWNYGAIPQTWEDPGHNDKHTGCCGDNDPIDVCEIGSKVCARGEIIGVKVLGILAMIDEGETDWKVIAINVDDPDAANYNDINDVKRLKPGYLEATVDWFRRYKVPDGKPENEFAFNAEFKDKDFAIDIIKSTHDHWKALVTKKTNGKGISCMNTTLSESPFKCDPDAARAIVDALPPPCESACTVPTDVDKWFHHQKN
UniProt Q9UIW2: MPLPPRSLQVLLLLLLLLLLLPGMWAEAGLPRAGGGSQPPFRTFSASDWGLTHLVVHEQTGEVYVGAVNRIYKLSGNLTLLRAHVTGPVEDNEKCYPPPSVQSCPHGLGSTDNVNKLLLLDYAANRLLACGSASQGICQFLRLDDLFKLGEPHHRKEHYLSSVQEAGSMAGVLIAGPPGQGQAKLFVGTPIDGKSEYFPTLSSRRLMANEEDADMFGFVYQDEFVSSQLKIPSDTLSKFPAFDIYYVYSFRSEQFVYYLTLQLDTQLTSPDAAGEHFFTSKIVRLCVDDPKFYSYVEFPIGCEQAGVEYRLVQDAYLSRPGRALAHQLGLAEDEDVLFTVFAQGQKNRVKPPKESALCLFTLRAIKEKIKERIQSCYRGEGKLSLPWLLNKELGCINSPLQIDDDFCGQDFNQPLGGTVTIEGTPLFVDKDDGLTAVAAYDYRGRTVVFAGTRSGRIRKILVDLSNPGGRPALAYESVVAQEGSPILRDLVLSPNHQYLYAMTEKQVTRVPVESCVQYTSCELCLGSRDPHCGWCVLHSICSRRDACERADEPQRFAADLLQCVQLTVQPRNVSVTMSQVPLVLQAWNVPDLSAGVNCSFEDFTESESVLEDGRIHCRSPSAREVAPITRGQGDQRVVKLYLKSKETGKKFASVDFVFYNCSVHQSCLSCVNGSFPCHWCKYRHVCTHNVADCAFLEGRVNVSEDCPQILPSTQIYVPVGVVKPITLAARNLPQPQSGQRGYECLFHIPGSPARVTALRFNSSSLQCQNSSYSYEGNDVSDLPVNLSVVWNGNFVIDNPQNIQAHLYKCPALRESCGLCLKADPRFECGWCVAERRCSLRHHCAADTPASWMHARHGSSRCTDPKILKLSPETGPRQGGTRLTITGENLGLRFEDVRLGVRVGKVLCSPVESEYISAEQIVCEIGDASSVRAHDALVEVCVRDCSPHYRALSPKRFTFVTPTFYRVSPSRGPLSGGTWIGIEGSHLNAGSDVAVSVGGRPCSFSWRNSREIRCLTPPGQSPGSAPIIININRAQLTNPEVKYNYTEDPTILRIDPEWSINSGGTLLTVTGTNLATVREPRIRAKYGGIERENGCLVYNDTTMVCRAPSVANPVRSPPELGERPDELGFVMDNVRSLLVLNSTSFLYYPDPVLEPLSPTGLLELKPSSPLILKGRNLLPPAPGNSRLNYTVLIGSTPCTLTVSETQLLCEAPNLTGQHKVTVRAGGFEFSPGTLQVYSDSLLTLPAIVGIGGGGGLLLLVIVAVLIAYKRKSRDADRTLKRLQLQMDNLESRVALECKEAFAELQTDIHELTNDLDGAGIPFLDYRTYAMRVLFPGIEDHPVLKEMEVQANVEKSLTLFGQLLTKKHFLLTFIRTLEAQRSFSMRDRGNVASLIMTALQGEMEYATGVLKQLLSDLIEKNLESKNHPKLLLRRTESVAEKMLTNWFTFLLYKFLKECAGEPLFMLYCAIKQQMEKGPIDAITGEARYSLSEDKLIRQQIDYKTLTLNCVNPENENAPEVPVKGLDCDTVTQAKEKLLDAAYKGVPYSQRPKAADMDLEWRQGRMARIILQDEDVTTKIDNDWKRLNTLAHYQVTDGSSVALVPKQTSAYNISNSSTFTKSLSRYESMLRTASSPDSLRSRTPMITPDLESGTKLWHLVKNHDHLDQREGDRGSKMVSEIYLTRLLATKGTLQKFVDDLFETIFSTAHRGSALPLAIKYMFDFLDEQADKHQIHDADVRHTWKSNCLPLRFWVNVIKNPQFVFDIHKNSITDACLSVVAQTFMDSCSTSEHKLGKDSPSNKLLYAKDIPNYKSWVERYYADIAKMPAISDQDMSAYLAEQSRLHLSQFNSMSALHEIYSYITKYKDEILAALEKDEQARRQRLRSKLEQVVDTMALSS

How the values were obtained:
Test in all cases: log2 fold change, soluble protein after heating vs DMSO (PISA); higher = thermal stabilisation; K562 cells, 10 uM, 30 min; active = over 0.2 and 3.5 SD of the protein, either way, in both replicates (recomputed)
[1] = compound: CS(=O)(=O)c1ccc(-c2cnc(N)c(C(=O)Nc3ccccc3)n2)cc1
Method in brief: (§1)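 Soluble protein was quantified by TMTpro 16plex LC-MS/MS after channel sums were equalised. It was obtained as the supernatant after 21,000xg for 90 min from pooled aliquots of K562 cells (2×10^6 cells/mL, 10 μM compound, 30 min) heated for 3 min across 48°C-58°C and extracted in PBS with 0.5% NP-40 at 4°C. Thermal stability values are relative to control samples and come from duplicates. They are given as log2 fold changes.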

[2] = compound: C[C@@H](Oc1cc(-c2cnn(C3CCNCC3)c2)cnc1N)c1c(Cl)ccc(F)c1Cl [crizotinib]
Method in brief: as §1

[3] = compound: C[C@@H]1COCCN1C2=NC(=NC(=C2)C3(CC3)S(=O)(=O)C)C4=C5C=CNC5=CC=C4
Method in brief: as §1

[4] = compound: C[C@H](C1=CC=C(C=C1)C(=O)NC2=C3C=CNC3=NC=C2)N
Method in brief: as §1

[5] = compound: C[C@H](Nc1ncnc2nc[nH]c12)c1cc2cccc(Cl)c2c(=O)n1-c1ccccc1 [duvelisib]
Method in brief: as §1

[6] = compound: Cc1cc(Nc2cc(CN3CCOCC3)c3nc(C)c(Cc4ccc(Cl)cc4F)n3n2)n[nH]1 [gandotinib]
Method in brief: as §1

[7] = compound: Cc1cc(Nc2cc(N3CCN(C)CC3)nc(Sc3ccc(NC(=O)C4CC4)cc3)n2)n[nH]1 [tozasertib]
Method in brief: as §1

[8] = compound: Cc1cc(SCc2sc(-c3ccc(C(F)(F)F)cc3)nc2C)ccc1OCC(=O)O
Method in brief: as §1

[9] = compound: Cc1ccc(-n2nc(C(C)(C)C)cc2NC(=O)Nc2ccc(OCCN3CCOCC3)c3ccccc23)cc1 [doramapimod]
Method in brief: as §1

[10] = compound: Cc1ccc(C(=O)N(CCCN)[C@@H](c2nc3cc(Cl)ccc3c(=O)n2Cc2ccccc2)C(C)C)cc1 [ispinesib]
Method in brief: as §1

Measured: log2 fold change

POGLUT3 (UniProt Q7Z4H8)
inactive: [1] 0.022 | [2] 0.01 | [3] -0.035 | [4] 0.059 | [5] -0.056 | [6] 0.005 | [7] -0.002 | [8] 0.023 | [9] 0.009 | [10] -0.011

PLOD3 (UniProt O60568)
inactive: [1] 0.017 | [2] 0.055 | [3] -0.058 | [4] 0.104 | [5] -0.015 | [6] 0.071 | [7] 0.015 | [8] -0.005 | [9] 0.05 | [10] -0.008

POU2F1 isoform 6 (UniProt P14859)
inactive: [1] -0.053 | [2] -0.037 | [3] 0.14 | [4] -0.115 | [5] -0.063 | [6] -0.11 | [7] 0.084 | [8] 0.044 | [9] 0.006 | [10] -0.018

PPIE (UniProt Q9UNP9)
inactive: [1] 0.087 | [2] 0.141 | [3] -0.054 | [4] -0.028 | [5] -0.029 | [6] 0.045 | [7] 0.015 | [8] -0.058 | [9] -0.023 | [10] 0.108

PNPO (UniProt Q9NVS9)
inactive: [1] 0.006 | [2] 0.035 | [3] 0.098 | [4] -0.043 | [5] 0.028 | [6] -0.004 | [7] -0.009 | [8] 0.045 | [9] -0.019 | [10] 0.186

POR (UniProt P16435)
inactive: [1] 0.023 | [2] 0.079 | [3] 0.048 | [4] -0.072 | [5] 0.062 | [6] 0.019 | [7] -0.02 | [8] 0 | [9] -0.036 | [10] 0.031

PNKD isoform 3 (UniProt Q8N490)
inactive: [1] 0.048 | [2] 0.025 | [3] -0.018 | [4] -0.05 | [5] 0.086 | [6] 0.033 | [7] -0.023 | [8] -0.045 | [9] -0.021 | [10] -0.021

PLPP6 (UniProt Q8IY26)
inactive: [1] -0.011 | [2] -0.066 | [3] 0.008 | [4] 0.147 | [5] 0.256 | [6] 0.09 | [7] 0.042 | [8] 0.093 | [9] 0.045 | [10] 0.037

POP4 (UniProt O95707)
inactive: [1] 0.032 | [2] 0.039 | [3] 0.043 | [4] 0.01 | [5] 0.051 | [6] 0.073 | [7] 0.012 | [8] 0.05 | [9] 0.084 | [10] -0.023

POFUT1 (UniProt Q9H488)
inactive: [1] 0.026 | [2] 0.079 | [3] 0.03 | [4] 0.059 | [5] 0.008 | [6] 0.051 | [7] -0.014 | [8] -0.018 | [9] -0.017 | [10] 0.03

PNO1 (UniProt Q9NRX1)
inactive: [1] -0.022 | [2] -0.083 | [3] -0.214 | [4] 0.364 | [5] -0.138 | [6] 0.06 | [7] 0.091 | [8] 0.055 | [9] 0.1 | [10] -0.214

POLR3A (UniProt O14802)
inactive: [1] 0.036 | [2] -0.064 | [3] -0.007 | [4] 0.115 | [5] 0.035 | [6] -0.214 | [7] 0.079 | [8] 0.108 | [9] -0.029 | [10] -0.111

POLG2 (UniProt Q9UHN1)
inactive: [1] -0.024 | [2] 0.014 | [3] -0.007 | [4] -0.074 | [5] -0.023 | [6] -0.007 | [7] -0.025 | [8] -0.018 | [9] -0.038 | [10] -0.021

PPIF (UniProt P30405)
inactive: [1] 0.023 | [2] 0.099 | [3] 0.037 | [4] -0.104 | [5] 0.068 | [6] -0.026 | [7] -0.036 | [8] 0.03 | [9] -0.078 | [10] 0.056

PPFIA1 (UniProt Q13136)
inactive: [1] 0.136 | [2] 0.019 | [3] -0.042 | [4] 0.104 | [5] -0.149 | [6] 0.11 | [7] 0.008 | [8] 0.175 | [9] 0.092 | [10] -0.192

2 entries drawn at random from those above, as already listed:
PLOD3 (UniProt O60568)
inactive: [1] 0.017 | [2] 0.055 | [3] -0.058 | [4] 0.104 | [5] -0.015 | [6] 0.071 | [7] 0.015 | [8] -0.005 | [9] 0.05 | [10] -0.008

PPFIA1 (UniProt Q13136)
inactive: [1] 0.136 | [2] 0.019 | [3] -0.042 | [4] 0.104 | [5] -0.149 | [6] 0.11 | [7] 0.008 | [8] 0.175 | [9] 0.092 | [10] -0.192

(next part)

POMGNT1 isoform 2 (UniProt Q8WZA1)
inactive: [1] 0.113 | [2] -0.011 | [3] 0.036 | [4] 0.122 | [5] 0.08 | [6] 0.012 | [7] -0.067 | [8] -0.108 | [9] 0.013 | [10] -0.186

POLR1B isoform 3 (UniProt Q9H9Y6)
inactive: [1] 0.048 | [2] -0.014 | [3] 0.08 | [4] 0.292 | [5] -0.065 | [6] -0.061 | [7] -0.012 | [8] 0.043 | [9] 0.133 | [10] 0.009

PPM1B (UniProt O75688)
inactive: [1] 0.028 | [2] 0.031 | [3] 0.039 | [4] -0.041 | [5] 0.013 | [6] -0.042 | [7] 0.018 | [8] 0.027 | [9] -0.029 | [10] 0.087

POLDIP3 (UniProt Q9BY77)
inactive: [1] -0.009 | [2] 0.012 | [3] -0.206 | [4] 0.088 | [5] -0.029 | [6] 0.054 | [7] 0 | [8] -0.057 | [9] 0.028 | [10] 0.005

PNPT1 (UniProt Q8TCS8)
inactive: [1] 0 | [2] 0.11 | [3] 0.066 | [4] -0.008 | [5] 0.07 | [6] -0.107 | [7] 0.011 | [8] 0.051 | [9] -0.057 | [10] 0.071

PNP (UniProt P00491)
inactive: [1] -0.005 | [2] 0.039 | [3] 0.012 | [4] -0.037 | [5] -0.003 | [6] 0.027 | [7] -0.024 | [8] -0.025 | [9] -0.001 | [10] 0.019

POLR3G (UniProt O15318)
inactive: [1] -0.039 | [2] 0.058 | [3] -0.028 | [4] -0.078 | [5] 0.008 | [6] -0.007 | [7] 0.045 | [8] 0.006 | [9] -0.039 | [10] -0.013

POLR3C (UniProt Q9BUI4)
inactive: [1] -0.032 | [2] 0.088 | [3] 0.032 | [4] -0.044 | [5] 0.05 | [6] -0.013 | [7] 0.017 | [8] 0.005 | [9] 0.024 | [10] 0.016

PPIP5K1 (UniProt Q6PFW1)
inactive: [1] -0.004 | [2] 0.032 | [3] 0.065 | [4] -0.042 | [5] 0.003 | [6] -0.026 | [7] 0.009 | [8] 0.018 | [9] 0.016 | [10] 0.032

PPA1 (UniProt Q15181)
inactive: [1] 0.056 | [2] -0.053 | [3] 0.045 | [4] -0.054 | [5] 0.053 | [6] 0.03 | [7] -0.012 | [8] -0.002 | [9] 0.046 | [10] 0

PLXNA1 (UniProt Q9UIW2)
inactive: [1] 0.023 | [2] 0.048 | [3] 0.085 | [4] -0.034 | [5] 0.051 | [6] -0.089 | [7] -0.035 | [8] -0.031 | [9] -0.001 | [10] 0.084

POLR2F (UniProt P61218)
inactive: [1] -0.1 | [2] 0.213 | [3] 0.132 | [4] 0.147 | [5] 0.131 | [6] 0.206 | [7] 0.202 | [8] -0.143 | [9] -0.167 | [10] 0.059

PNKD isoform 2 (UniProt Q8N490)
inactive: [1] 0.036 | [2] 0.08 | [3] 0.126 | [4] 0.046 | [5] 0.139 | [6] 0.052 | [7] -0.024 | [8] 0.08 | [9] -0.05 | [10] -0.103

PLXNB2 (UniProt O15031)
inactive: [1] 0.008 | [2] -0.008 | [3] 0.054 | [4] 0.004 | [5] 0.102 | [6] -0.015 | [7] -0.014 | [8] 0.025 | [9] 0.045 | [10] 0.027

PLPBP (UniProt O94903)
inactive: [1] 0.063 | [2] 0.111 | [3] -0.049 | [4] -0.013 | [5] 0.013 | [6] 0.054 | [7] -0.02 | [8] 0.115 | [9] -0.018 | [10] -0.022
